The list shows a part of the results.
Columns and labels:
Assay in all cases: log2 fold change, soluble protein after heating vs DMSO (PISA); higher = thermal stabilisation; K562 lysate, 10 uM; active = over 0.2 and 3.5 SD of the protein, either way, in both replicates (recomputed)
[1] = compound: CN1CC[C@H](c2c(O)cc(O)c3c(=O)cc(-c4ccccc4Cl)oc23)[C@H](O)C1 [alvocidib]
Outline: (§1)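 Thermal stability, expressed as log-two fold change relative to solvent controls, is given from duplicates. Crude K562 extract in PBS pH 7.4 with 1 mM MgCl2, at 1 mg/mL protein, was treated with 10 μM compound for 30 min and heated in aliquots for 3 min across 48°C-58°C. After pooling, adjustment to 0.5% NP-40 at 4°C and centrifugation at 21,000xg for 90 min, supernatant protein was measured by TMTpro 16plex LC-MS/MS with channel sums equalised.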

The chains behind the UniProt entries cited, without tags or fusion partners. Where a name states a change or a piece, a line headed by the entry shows the natural chain unless it says otherwise.
UniProt O60671: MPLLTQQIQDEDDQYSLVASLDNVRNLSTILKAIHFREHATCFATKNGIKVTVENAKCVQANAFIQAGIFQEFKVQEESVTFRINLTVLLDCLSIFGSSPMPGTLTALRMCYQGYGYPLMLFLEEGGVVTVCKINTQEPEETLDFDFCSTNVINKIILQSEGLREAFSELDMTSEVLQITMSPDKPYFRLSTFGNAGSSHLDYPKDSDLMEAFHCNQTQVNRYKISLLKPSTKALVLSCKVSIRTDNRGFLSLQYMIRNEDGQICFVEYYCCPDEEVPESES
UniProt Q9H5N1: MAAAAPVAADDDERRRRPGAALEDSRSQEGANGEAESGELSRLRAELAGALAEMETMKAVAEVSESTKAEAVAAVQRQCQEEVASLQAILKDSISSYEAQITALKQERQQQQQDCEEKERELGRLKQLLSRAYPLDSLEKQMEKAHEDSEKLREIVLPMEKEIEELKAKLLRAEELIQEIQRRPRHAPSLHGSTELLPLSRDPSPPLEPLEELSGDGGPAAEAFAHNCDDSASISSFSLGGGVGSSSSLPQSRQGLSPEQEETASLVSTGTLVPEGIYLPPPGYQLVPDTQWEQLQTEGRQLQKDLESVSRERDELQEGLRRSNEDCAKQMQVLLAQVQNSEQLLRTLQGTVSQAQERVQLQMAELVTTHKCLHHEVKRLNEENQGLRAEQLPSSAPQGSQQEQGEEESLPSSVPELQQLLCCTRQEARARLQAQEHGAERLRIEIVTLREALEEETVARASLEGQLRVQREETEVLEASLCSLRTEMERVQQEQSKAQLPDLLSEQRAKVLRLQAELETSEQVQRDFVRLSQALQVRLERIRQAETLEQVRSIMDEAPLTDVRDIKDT
UniProt Q5HYI8: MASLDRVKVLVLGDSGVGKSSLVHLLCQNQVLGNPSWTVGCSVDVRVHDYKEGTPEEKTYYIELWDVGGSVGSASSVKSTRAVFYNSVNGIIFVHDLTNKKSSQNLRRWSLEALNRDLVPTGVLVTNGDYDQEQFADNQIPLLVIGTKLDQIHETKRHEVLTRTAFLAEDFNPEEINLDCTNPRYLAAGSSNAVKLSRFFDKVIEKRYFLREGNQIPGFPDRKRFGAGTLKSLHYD
UniProt Q99638: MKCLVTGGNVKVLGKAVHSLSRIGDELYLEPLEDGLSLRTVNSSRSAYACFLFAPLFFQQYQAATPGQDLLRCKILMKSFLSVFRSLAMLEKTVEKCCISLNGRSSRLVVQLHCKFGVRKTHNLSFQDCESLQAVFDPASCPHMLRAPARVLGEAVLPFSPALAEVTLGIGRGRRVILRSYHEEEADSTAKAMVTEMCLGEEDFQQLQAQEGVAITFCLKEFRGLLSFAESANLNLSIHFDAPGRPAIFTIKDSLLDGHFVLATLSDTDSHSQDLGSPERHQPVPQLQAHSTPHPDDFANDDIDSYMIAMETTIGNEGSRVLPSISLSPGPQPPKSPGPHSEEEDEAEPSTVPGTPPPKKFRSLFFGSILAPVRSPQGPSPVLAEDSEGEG
UniProt P51159: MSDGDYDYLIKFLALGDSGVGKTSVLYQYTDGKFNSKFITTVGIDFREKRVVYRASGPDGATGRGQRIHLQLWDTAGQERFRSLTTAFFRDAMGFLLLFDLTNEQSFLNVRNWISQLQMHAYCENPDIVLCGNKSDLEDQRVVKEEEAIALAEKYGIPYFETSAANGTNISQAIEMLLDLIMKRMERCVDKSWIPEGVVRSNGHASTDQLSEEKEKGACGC
UniProt Q9H0H5: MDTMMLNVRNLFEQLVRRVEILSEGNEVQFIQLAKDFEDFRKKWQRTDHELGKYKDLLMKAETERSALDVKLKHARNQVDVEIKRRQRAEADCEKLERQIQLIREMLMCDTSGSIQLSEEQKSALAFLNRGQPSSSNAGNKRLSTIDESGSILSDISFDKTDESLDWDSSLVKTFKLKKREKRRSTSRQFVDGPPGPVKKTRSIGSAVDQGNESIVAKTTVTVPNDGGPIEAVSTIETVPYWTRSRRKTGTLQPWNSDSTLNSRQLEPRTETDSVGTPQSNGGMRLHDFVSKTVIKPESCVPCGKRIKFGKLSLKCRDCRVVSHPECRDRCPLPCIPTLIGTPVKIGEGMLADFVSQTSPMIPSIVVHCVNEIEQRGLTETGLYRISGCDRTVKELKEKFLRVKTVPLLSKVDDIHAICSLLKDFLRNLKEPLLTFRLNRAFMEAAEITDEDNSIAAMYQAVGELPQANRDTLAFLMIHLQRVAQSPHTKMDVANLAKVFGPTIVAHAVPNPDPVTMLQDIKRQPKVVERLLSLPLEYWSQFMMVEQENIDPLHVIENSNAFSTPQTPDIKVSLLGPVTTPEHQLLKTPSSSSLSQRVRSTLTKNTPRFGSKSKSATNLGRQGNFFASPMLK
UniProt P43487, whole entry, looked up: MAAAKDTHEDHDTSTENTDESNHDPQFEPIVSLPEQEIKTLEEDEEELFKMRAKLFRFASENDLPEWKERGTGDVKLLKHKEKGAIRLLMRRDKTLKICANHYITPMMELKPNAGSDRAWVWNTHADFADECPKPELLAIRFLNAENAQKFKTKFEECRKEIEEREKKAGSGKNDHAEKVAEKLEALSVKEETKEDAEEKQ
UniProt P54727: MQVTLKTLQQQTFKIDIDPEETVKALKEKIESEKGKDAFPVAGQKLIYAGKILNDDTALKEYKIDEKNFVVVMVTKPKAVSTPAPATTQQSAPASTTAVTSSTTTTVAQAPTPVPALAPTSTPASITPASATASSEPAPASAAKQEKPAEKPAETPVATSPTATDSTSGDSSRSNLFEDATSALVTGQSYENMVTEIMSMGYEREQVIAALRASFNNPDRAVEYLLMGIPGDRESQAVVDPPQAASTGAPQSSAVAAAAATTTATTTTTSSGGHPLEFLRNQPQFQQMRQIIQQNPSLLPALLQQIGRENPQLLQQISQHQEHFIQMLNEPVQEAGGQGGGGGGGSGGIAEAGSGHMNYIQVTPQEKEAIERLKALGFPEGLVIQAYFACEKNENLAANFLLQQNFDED
UniProt O60518: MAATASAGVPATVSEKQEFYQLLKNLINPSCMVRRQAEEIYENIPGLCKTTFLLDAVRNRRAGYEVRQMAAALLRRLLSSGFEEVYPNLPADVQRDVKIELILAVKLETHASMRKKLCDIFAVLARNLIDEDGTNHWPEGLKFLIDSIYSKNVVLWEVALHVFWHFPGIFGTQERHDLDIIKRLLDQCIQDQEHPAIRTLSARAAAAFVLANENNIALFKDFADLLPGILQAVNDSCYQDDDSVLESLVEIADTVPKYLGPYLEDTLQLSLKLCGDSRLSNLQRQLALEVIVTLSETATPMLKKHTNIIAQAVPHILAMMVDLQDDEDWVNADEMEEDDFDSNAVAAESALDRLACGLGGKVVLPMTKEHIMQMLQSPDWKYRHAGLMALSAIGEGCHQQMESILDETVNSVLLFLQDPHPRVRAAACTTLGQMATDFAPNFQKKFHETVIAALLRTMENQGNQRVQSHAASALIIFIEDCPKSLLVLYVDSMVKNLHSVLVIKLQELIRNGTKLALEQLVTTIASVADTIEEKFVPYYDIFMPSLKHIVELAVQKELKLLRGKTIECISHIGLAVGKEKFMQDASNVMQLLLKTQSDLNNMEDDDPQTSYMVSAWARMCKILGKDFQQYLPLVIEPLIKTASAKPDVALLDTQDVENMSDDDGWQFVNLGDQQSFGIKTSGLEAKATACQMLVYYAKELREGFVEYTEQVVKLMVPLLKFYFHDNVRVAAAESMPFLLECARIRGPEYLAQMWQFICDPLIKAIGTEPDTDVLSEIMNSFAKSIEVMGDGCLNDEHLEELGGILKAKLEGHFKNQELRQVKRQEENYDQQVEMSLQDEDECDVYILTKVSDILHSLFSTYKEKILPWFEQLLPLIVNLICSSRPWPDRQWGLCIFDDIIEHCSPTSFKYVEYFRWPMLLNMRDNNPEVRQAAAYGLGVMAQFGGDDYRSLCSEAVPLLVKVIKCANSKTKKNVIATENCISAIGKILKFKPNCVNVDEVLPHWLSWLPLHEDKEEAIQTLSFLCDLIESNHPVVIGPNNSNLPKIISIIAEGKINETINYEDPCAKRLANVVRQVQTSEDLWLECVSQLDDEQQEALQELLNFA
UniProt P61224: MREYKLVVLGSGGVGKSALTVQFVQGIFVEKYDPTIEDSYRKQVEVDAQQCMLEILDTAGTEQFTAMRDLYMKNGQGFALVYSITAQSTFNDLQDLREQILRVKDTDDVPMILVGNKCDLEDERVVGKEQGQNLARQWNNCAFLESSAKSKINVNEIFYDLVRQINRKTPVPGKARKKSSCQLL
UniProt Q96I23: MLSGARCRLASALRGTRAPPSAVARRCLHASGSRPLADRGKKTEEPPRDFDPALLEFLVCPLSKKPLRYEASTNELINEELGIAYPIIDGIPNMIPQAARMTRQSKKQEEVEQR
UniProt Q6ZRP7: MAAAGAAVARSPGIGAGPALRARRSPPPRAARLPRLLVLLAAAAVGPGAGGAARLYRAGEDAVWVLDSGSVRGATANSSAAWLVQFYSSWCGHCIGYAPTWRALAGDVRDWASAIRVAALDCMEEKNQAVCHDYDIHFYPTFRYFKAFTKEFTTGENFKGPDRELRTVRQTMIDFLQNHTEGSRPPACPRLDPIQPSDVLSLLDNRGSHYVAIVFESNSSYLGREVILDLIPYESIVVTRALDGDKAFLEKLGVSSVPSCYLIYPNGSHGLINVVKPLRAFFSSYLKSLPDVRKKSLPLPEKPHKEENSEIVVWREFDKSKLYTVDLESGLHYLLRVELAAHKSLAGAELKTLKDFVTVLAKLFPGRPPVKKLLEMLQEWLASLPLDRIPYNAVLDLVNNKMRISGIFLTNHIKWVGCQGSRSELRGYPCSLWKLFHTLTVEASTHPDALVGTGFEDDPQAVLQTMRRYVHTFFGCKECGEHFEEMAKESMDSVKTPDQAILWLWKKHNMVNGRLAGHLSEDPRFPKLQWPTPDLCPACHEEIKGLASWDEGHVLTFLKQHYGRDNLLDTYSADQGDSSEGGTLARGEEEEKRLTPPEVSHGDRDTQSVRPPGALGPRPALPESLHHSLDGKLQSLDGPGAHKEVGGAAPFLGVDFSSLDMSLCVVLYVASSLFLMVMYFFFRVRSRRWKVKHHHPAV
UniProt Q9Y6I8: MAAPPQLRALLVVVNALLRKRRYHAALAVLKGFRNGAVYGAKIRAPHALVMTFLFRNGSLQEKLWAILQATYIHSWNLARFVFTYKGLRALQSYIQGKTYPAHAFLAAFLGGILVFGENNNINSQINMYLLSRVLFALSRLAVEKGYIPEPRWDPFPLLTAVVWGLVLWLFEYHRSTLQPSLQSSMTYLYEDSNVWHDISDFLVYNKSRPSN
UniProt Q9NP72: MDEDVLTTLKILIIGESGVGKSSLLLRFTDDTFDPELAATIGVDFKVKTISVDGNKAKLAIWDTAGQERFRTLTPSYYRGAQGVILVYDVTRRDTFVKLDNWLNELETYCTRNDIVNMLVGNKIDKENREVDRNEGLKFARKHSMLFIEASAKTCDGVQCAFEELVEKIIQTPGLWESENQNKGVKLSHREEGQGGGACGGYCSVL
UniProt Q9H2T7: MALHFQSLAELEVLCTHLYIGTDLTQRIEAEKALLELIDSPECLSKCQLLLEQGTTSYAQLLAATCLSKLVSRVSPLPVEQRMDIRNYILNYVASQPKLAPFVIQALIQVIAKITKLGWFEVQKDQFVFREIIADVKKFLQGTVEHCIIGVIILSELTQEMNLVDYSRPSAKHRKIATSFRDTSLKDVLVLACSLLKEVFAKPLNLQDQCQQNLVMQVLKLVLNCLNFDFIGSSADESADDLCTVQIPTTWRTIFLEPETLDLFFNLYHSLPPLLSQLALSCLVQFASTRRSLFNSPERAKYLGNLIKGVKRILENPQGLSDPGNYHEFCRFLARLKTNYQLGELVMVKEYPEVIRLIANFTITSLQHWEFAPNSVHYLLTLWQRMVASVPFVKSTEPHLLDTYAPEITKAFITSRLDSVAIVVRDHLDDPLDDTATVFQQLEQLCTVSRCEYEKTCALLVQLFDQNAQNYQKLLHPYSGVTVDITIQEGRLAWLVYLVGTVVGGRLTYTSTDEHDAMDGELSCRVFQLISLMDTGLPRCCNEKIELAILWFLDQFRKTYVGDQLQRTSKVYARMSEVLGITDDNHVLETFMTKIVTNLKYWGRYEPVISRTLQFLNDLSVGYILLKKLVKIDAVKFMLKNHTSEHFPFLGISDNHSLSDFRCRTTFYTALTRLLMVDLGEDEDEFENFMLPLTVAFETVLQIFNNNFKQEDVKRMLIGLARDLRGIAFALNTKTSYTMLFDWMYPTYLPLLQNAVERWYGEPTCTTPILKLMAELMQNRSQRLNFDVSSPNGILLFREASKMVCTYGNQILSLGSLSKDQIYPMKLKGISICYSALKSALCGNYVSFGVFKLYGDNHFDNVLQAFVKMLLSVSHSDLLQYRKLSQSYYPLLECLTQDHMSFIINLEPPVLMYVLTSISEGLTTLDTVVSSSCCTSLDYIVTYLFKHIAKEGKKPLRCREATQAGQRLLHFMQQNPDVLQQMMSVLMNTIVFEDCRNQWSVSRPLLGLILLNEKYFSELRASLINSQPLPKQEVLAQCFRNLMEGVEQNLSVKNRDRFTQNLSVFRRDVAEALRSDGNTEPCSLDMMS

[2] = compound: CN1CCc2c(c3ccccc3n2Cc2ccc(C(=O)NO)cc2)C1 [Tubastatin A]
Outline: as §1

[3] = compound: CNC(=O)C1=CC=CC=C1NC2=NC(=NC=C2Cl)NC3=C(C=C(C=C3)N4CCOCC4)OC
Outline: as §1

[4] = compound: CNC(=O)c1ccc(Nc2ncc(C(F)(F)F)c(NCc3nccnc3N(C)S(C)(=O)=O)n2)cc1 [defactinib]
Outline: as §1

[5] = compound: CNc1nc(-c2ccc3c(N)n[nH]c3c2)cc(N2C[C@@H](C(=O)NC3CCCCC3)CC[C@H]2C)n1
Outline: as §1

[6] = compound: COC(=O)N[C@@H](C)CNc1nccc(-c2cn(C(C)C)nc2-c2cc(Cl)cc(NS(C)(=O)=O)c2F)n1 [encorafenib]
Outline: as §1

[7] = compound: COC(=O)[C@H](CCSC)NC(=O)C1=C(C=C(C=C1)NC[C@H](CS)N)C2=CC=CC=C2
Outline: as §1

[8] = compound: COc1cc(Nc2ncc3c(n2)-c2ccc(Cl)cc2C(c2c(F)cccc2OC)=NC3)ccc1C(=O)O [alisertib]
Outline: as §1

[9] = compound: COc1cc2nc(-c3cc(F)ccc3O)nc(N[C@@H]3CNC[C@H]3C(C)(C)O)c2cc1OC
Outline: as §1

[10] = compound: COc1cc2ncnc(Nc3ccc(F)c(Cl)c3)c2cc1OCCCN1CCOCC1 [gefitinib]
Outline: as §1

[11] = compound: CS(=O)(=O)CCNCc1ccc(-c2ccc3ncnc(Nc4ccc(OCc5cccc(F)c5)c(Cl)c4)c3c2)o1 [lapatinib]
Outline: as §1

[12] = compound: CS(=O)(=O)N1CCN(Cc2cc3nc(-c4cccc5[nH]ncc45)nc(N4CCOCC4)c3s2)CC1 [pictilisib]
Outline: as §1

[13] = compound: C[C@@H](Oc1cc(-c2cnn(C3CCNCC3)c2)cnc1N)c1c(Cl)ccc(F)c1Cl [crizotinib]
Outline: as §1

[14] = compound: C[C@H](C1=CC=C(C=C1)C(=O)NC2=C3C=CNC3=NC=C2)N
Outline: as §1

[15] = compound: C[C@H](Nc1ncnc2nc[nH]c12)c1cc2cccc(Cl)c2c(=O)n1-c1ccccc1 [duvelisib]
Outline: as §1

[16] = compound: Cc1cc(Nc2cc(CN3CCOCC3)c3nc(C)c(Cc4ccc(Cl)cc4F)n3n2)n[nH]1 [gandotinib]
Outline: as §1

[17] = compound: Cc1cc(Nc2cc(N3CCN(C)CC3)nc(Sc3ccc(NC(=O)C4CC4)cc3)n2)n[nH]1 [tozasertib]
Outline: as §1

[18] = compound: Cc1ccc(-n2nc(C(C)(C)C)cc2NC(=O)Nc2ccc(OCCN3CCOCC3)c3ccccc23)cc1 [doramapimod]
Outline: as §1

[19] = compound: Cc1ccc(NC(=O)c2ccc(CN3CC[C@H](N(C)C)C3)c(C(F)(F)F)c2)cc1Nc1nccc(-c2cncnc2)n1 [bafetinib]
Outline: as §1

[20] = compound: Cc1cccc(CC(=O)N2CCc3c2ccc(-c2cn(C)c4ncnc(N)c24)c3F)n1
Outline: as §1

Target	log2 fold change [1]	log2 fold change [2]	log2 fold change [3]	log2 fold change [4]	log2 fold change [5]	log2 fold change [6]	log2 fold change [7]	log2 fold change [8]	log2 fold change [9]	log2 fold change [10]	log2 fold change [11]	log2 fold change [12]	log2 fold change [13]	log2 fold change [14]	log2 fold change [15]	log2 fold change [16]	log2 fold change [17]	log2 fold change [18]	log2 fold change [19]	log2 fold change [20]
RANGAP1 (UniProt P46060)	inactive: 0.015	inactive: -0.064	inactive: 0.008	inactive: 0.001	inactive: -0.027	inactive: -0.008	inactive: 0.03	inactive: 0.026	inactive: 0.005	inactive: 0.007	inactive: -0.012	inactive: 0.005	inactive: -0.014	inactive: -0.016	inactive: -0.028	inactive: -0.046	inactive: 0.005	inactive: -0.008	inactive: 0.015	inactive: -0.003
RAD1 (UniProt O60671)	inactive: -0.026	inactive: -0.037	inactive: 0.062	inactive: -0.013	inactive: 0.011	inactive: -0.028	inactive: 0	inactive: 0.038	inactive: -0.032	inactive: -0.035	inactive: 0.008	inactive: -0.03	inactive: -0.046	inactive: -0.053	inactive: 0.026	inactive: 0.023	inactive: 0.076	inactive: -0.019	inactive: 0.003	inactive: 0.024
RABEP2 (UniProt Q9H5N1)	inactive: 0.024	inactive: -0.037	inactive: 0.054	inactive: -0.016	inactive: 0.016	inactive: 0.002	inactive: 0.03	inactive: 0.004	inactive: -0.011	inactive: -0.041	inactive: -0.022	inactive: -0.047	inactive: -0.007	inactive: 0.114	inactive: -0.007	inactive: 0	inactive: -0.008	inactive: -0.027	inactive: -0.016	inactive: -0.041
RABL3 (UniProt Q5HYI8)	inactive: -0.023	inactive: -0.193	inactive: 0.154	inactive: 0	inactive: -0.021	inactive: 0.02	inactive: -0.01	inactive: -0.036	inactive: -0.038	inactive: 0.005	inactive: 0.036	inactive: -0.028	inactive: -0.102	inactive: -0.017	inactive: 0.198	inactive: -0.097	inactive: -0.003	inactive: 0.085	inactive: -0.05	inactive: 0.031
RAD9A (UniProt Q99638)	inactive: -0.083	inactive: -0.053	inactive: 0.019	inactive: 0.004	inactive: -0.029	inactive: -0.018	inactive: 0.009	inactive: 0.032	inactive: 0.056	inactive: 0.057	inactive: -0.016	inactive: -0.002	inactive: 0.03	inactive: 0.029	inactive: 0.012	inactive: -0.019	inactive: 0.043	inactive: 0.032	inactive: -0.032	inactive: -0.063
RAB27A (UniProt P51159)	inactive: 0.087	inactive: -0.083	inactive: 0.047	inactive: -0.001	inactive: -0.131	inactive: 0.027	inactive: 0.016	inactive: -0.004	inactive: 0.041	inactive: 0.068	inactive: 0.013	inactive: -0.008	inactive: 0.026	active: 0.563	inactive: -0.009	inactive: -0.081	inactive: 0.024	inactive: -0.034	inactive: 0.038	inactive: -0.054
RACGAP1 (UniProt Q9H0H5)	inactive: -0.031	inactive: -0.091	inactive: 0.055	inactive: -0.039	inactive: -0.033	inactive: 0.057	inactive: -0.07	inactive: -0.067	inactive: -0.091	inactive: 0.002	inactive: 0.074	inactive: -0.039	inactive: -0.072	inactive: -0.011	inactive: 0.045	inactive: -0.059	inactive: 0.028	inactive: 0.022	inactive: -0.032	inactive: 0.077
RANBP1 (UniProt P43487)	inactive: 0.001	inactive: 0.055	inactive: -0.022	inactive: -0.006	inactive: -0.023	inactive: -0.027	inactive: -0.026	inactive: -0.009	inactive: -0.002	inactive: 0.01	inactive: 0.008	inactive: 0.019	inactive: 0.026	inactive: -0.028	inactive: 0.016	inactive: 0.017	inactive: 0.004	inactive: 0.02	inactive: 0.058	inactive: -0.055
RAD23B (UniProt P54727)	inactive: -0.02	inactive: 0.047	inactive: -0.031	inactive: -0.016	inactive: -0.013	inactive: -0.022	inactive: -0.019	inactive: -0.011	inactive: 0.012	inactive: 0.028	inactive: 0.013	inactive: 0.02	inactive: -0.01	inactive: 0.013	inactive: 0.056	inactive: -0.001	inactive: 0.021	inactive: 0.005	inactive: 0.047	inactive: 0.011
RANBP6 (UniProt O60518)	inactive: -0.033	inactive: -0.07	inactive: 0.008	inactive: 0.047	inactive: 0.014	inactive: -0.027	inactive: 0.057	inactive: 0.063	inactive: 0.046	inactive: 0.008	inactive: -0.007	inactive: -0.005	inactive: -0.125	inactive: -0.067	inactive: 0.019	inactive: -0.01	inactive: 0.012	inactive: 0.039	inactive: 0.016	inactive: 0.148
RAP1B (UniProt P61224)	inactive: 0.039	inactive: 0.05	inactive: 0.005	inactive: 0.02	inactive: 0.025	inactive: 0.011	inactive: -0.034	inactive: 0.015	inactive: 0.057	inactive: -0.054	inactive: 0.009	inactive: -0.006	inactive: 0.008	active: 0.215	inactive: -0.045	inactive: -0.036	inactive: 0	inactive: 0.017	inactive: 0.17	inactive: -0.021
PYURF (UniProt Q96I23)	inactive: 0.077	inactive: 0.041	inactive: 0.073	inactive: 0.181	inactive: 0.019	inactive: 0.113	inactive: 0.027	inactive: 0.007	inactive: -0.007	inactive: -0.038	inactive: 0.036	inactive: -0.066	inactive: 0.016	inactive: 0.01	inactive: 0.087	inactive: -0.015	inactive: -0.048	inactive: 0.011	inactive: 0.091	inactive: 0.015
QSOX2 (UniProt Q6ZRP7)	inactive: -0.013	inactive: 0.038	inactive: -0.002	inactive: 0.025	inactive: -0.005	inactive: 0.032	inactive: 0.001	inactive: -0.005	inactive: -0.013	inactive: -0.01	inactive: 0.027	inactive: -0.019	inactive: -0.002	inactive: -0.136	inactive: -0.035	inactive: 0.034	inactive: -0.015	inactive: 0.03	inactive: -0.061	inactive: 0.068
PXMP4 (UniProt Q9Y6I8)	inactive: 0	inactive: -0.015	inactive: 0.012	inactive: -0.028	active: 0.736	inactive: 0.033	inactive: 0.092	inactive: -0.039	inactive: -0.009	inactive: -0.039	inactive: -0.071	inactive: 0.066	inactive: -0.29	inactive: -0.068	inactive: -0.112	inactive: -0.221	inactive: -0.034	inactive: 0.238	inactive: -0.148	inactive: 0.194
RAB18 isoform 2 (UniProt Q9NP72)	inactive: -0.066	inactive: 0.052	inactive: 0.007	inactive: 0.028	inactive: -0.006	inactive: 0.007	inactive: 0.042	inactive: 0.025	inactive: 0.068	inactive: 0	inactive: -0.019	inactive: 0.041	inactive: 0.008	inactive: -0.051	inactive: 0.001	inactive: 0.05	inactive: 0.007	inactive: -0.068	inactive: -0.022	inactive: 0.135
RANBP17 (UniProt Q9H2T7)	inactive: -0.076	inactive: 0.035	inactive: 0.011	inactive: -0.026	inactive: 0.03	inactive: -0.037	inactive: -0.078	inactive: -0.048	inactive: 0.005	inactive: -0.146	inactive: -0.06	inactive: 0.1	inactive: -0.143	inactive: -0.026	inactive: 0.018	inactive: 0.084	inactive: -0.079	inactive: -0.124	inactive: 0.004	inactive: 0.006

Just log2 fold change [17], log2 fold change [18] and log2 fold change [11], for some of the entries so far:
Target,log2 fold change [17],log2 fold change [18],log2 fold change [11]
RACGAP1 (UniProt Q9H0H5),inactive: 0.028,inactive: 0.022,inactive: 0.074
RANBP1 (UniProt P43487),inactive: 0.004,inactive: 0.02,inactive: 0.008

From the supplement of paper PMC10849652
